Test results as given in patent US20210087295A1 (University of Pennsylvania, published 2021).

Biological target: T1, human fibroblast activation protein (FAP) (human, UniProt Q12884 1-760)
T1 sequence (looked up): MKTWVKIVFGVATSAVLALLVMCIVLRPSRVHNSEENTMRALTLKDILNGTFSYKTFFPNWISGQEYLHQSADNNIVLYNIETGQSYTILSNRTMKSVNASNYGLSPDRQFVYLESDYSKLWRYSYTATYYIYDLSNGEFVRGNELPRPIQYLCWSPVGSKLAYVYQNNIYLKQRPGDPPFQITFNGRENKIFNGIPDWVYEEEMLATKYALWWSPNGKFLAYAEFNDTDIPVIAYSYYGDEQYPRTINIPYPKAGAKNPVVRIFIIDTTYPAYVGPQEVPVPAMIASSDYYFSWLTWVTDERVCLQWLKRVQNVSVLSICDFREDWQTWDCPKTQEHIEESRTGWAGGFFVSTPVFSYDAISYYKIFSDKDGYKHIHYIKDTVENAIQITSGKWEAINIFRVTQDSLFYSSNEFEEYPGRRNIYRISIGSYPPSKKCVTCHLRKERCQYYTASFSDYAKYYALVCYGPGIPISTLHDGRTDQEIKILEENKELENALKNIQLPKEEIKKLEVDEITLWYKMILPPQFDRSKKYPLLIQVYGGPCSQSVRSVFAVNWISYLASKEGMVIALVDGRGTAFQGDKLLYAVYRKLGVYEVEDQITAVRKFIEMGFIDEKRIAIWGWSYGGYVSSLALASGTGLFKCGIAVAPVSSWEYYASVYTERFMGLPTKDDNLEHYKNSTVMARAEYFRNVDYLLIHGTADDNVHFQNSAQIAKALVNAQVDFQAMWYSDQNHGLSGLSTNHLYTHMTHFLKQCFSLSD
Assay: cell-based or functional assay

B1: 4G5_L2HG_CD8H_BB_CD3Z CAR (other)
chain: GSQIVLTQSPALMSASPGEKVTMTCTASSSVSYMYWYQQKPRSSPKPWIFLTSNLASGVPARFSGRGSGTSFSLTISSMEAEDAATYYCQQWSGYPPITFGSGTKLEIKGGGGSGGGGSGGGGSQVQLQQPGAELVKPGASVKLSCKASGYTITSYSLHWVKQRPGQGLEWIGEINPANGDHNFSEKFEIKATLTVDSSSNTAFMQLSRLTSEDSAVYYCTRLDDSRFHWYFDVWGAGTTVTVSSSGTTTPAPRPPTPAPTIASQPLSLRPEACRPAAGGAVHTRGLDFACDIYIWAPLAGTCGVLLLSLVITLYCKRGRKKLLYIFKQPFMRPVQTTQEEDGCSCRFPEEEEGGCELRVKFSRSADAPAYKQGQNQLYNELNLGRREEYDVLDKRRGRDPEMGGKPRRKNPQEGLYNELQKDKMAEAYSEIGMKGERRRGKGHDGLYQGLSTATKDTYDALHMQALPPR
  cytotoxicity and IFNγ production in co-culture with HOS cells (very low FAP): 20 effector to target ratio
